Laboratory results: PubChem BioAssay AID270 (DTP/NCI, 2004)
The list does not hold the whole screen: it is rich in T/C values a quarter to a half above the control, in often repeated tests (any T/C) and in doses without a T/C. Other doses and runs of a compound stand elsewhere. T/C gives the treated animals as a percentage of the vehicle group. Schedules are NCI's codes, read here as Q, the interval in days (D) or hours (H), X, the number of doses. Some doses have a count of surviving animals in place of a T/C: the source holds a T/C of zero for them, seemingly a mark for toxic or unscored doses. Some doses without a T/C left all or most animals alive at the check, yet need not have been tolerated: the source hardly ever lists a survival T/C far under the control, and the zero likely stands for such cases as well. Counts of survivors are from the toxicity check (mostly the fifth day) where no day follows; animals may have died later. For survival time, the PubChem record calls one and a half times the control and up active, and a quarter to a half above the control has no call in these data; cut-offs in other NCI protocols can differ. Some T/C values are followed by the survivors on the day toxicity was checked, most often the fifth; where none is given, no animal had died by that day.

System: BDF1 mice, s.c. Lewis lung carcinoma, T/C %
Assay: NCI In Vivo Anticancer Drug Screen. Data for tumor model Lewis Lung Carcinoma (subcutaneous) in B6D2F1 (BDF1) mice
How it was run: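 Antitumor effect in vivo is scored from survival or tumor burden, reported as treated relative to vehicle controls.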

[1] = T/C endpoint: median survival time, dose: 200.0 mg/kg/injection, schedule: Q01DX009 (ip), vehicle: saline, higher T/C = longer survival

O=c1[nH]c(=O)n(C2CC(O)C(CO)O2)cc1F (configuration not stated)
survivor count (T/C endpoint: mean tumor weight, dose: 160.0 mg/kg/injection, schedule: Q01DX011 (ip), vehicle: other, higher T/C = larger tumour): 2 of 10 | survivor count (T/C endpoint: mean tumor weight, dose: 180.0 mg/kg/injection, schedule: Q01DX011 (ip), vehicle: saline, higher T/C = larger tumour): 2 of 10 | survivor count (T/C endpoint: mean tumor weight, dose: 320.0 mg/kg/injection, schedule: Q01DX011 (ip), vehicle: saline, higher T/C = larger tumour): 0 of 6 | survivor count (T/C endpoint: median survival time, dose: 25.0 mg/kg/injection, schedule: Q01DX009 (ip), vehicle: saline with Tween-80, higher T/C = longer survival): 10 of 10 | T/C (T/C endpoint: median survival time, dose: 50.0 mg/kg/injection, schedule: Q01DX009 (ip), vehicle: saline, higher T/C = longer survival): 135 % of control | T/C (T/C endpoint: median survival time, dose: 54.0 mg/kg/injection, schedule: Q01DX011 (ip), vehicle: saline, higher T/C = longer survival): 126 % of control [8 of 9 alive] | T/C (T/C endpoint: median survival time, dose: 100.0 mg/kg/injection, schedule: Q01DX009 (ip), vehicle: saline, higher T/C = longer survival): 136 % of control | survivor count (T/C endpoint: median survival time, dose: 200.0 mg/kg/injection, schedule: Q01DX009 (ip), vehicle: saline with Tween-80, higher T/C = longer survival): 10 of 10 | T/C [1]: 133 % of control | survivor count [1]: 10 of 10

CCC1/C=C/C=C/CC(C)C(O)C(C)(O)C(=O)C(C)C(O)C(C)C(=O)C(C)C(O)C(C)/C=C/C(=O)OC2C(C)C(CC1)OC1(OC(CC(C)O)C(C)CC1=O)C2C (configuration not stated) (tested in a mixture with another compound)
T/C (T/C endpoint: mean tumor weight, dose: 1.0 mg/kg/injection, schedule: Q01DX011 (ip), vehicle: saline, evaluated on day 12, higher T/C = larger tumour): 142 % of control

CCCNC(=NC)c1ccc(NC(=O)c2ccc(C(=O)Nc3ccc(C(=NC)NCCC)cc3)cc2)cc1
survivor count (T/C endpoint: mean tumor weight, dose: 20.0 mg/kg/injection, schedule: Q01DX011 (ip), vehicle: other, higher T/C = larger tumour): 0 of 6

O=NN(CCCl)C(=O)N[C@H]1CCCC[C@H]1Cl
T/C (T/C endpoint: median survival time, dose: 45.0 mg/kg/injection, schedule: Q01DX001 (ip), vehicle: Klucel (hydroxypropylcellulose) (HPC), higher T/C = longer survival): 132 % of control | T/C (T/C endpoint: median survival time, dose: 90.0 mg/kg/injection, schedule: Q01DX001 (ip), vehicle: Klucel (hydroxypropylcellulose) (HPC), higher T/C = longer survival): 140 % of control | T/C (T/C endpoint: median survival time, dose: 180.0 mg/kg/injection, schedule: Q01DX001 (ip), vehicle: Klucel (hydroxypropylcellulose) (HPC), higher T/C = longer survival): 140 % of control

CC(=O)CC(=O)Nc1ccc(Cl)cc1
T/C (T/C endpoint: mean tumor weight, dose: 74.0 mg/kg/injection, schedule: Q01DX011 (ip), vehicle: other, evaluated on day 12, higher T/C = larger tumour): 130 % of control | T/C (T/C endpoint: mean tumor weight, dose: 250.0 mg/kg/injection, schedule: Q01DX011 (ip), vehicle: other, evaluated on day 12, higher T/C = larger tumour): 130 % of control | survivor count (T/C endpoint: mean tumor weight, dose: 1000.0 mg/kg/injection, schedule: Q01DX011 (ip), vehicle: other, higher T/C = larger tumour): 0 of 6

CO[C@H]1C[C@H](O[C@H]2CC[C@]3(C=O)[C@H]4CC[C@]5(C)[C@@H](C6=CC(=O)OC6)CC[C@]5(O)[C@@H]4CC[C@]3(O)C2)O[C@H](C)[C@H]1O
survivor count (T/C endpoint: mean tumor weight, dose: 6.0 mg/kg/injection, schedule: Q01DX011 (sc), vehicle: steroid suspending solution, higher T/C = larger tumour): 2 of 6 | survivor count (T/C endpoint: mean tumor weight, dose: 9.0 mg/kg/injection, schedule: Q01DX011 (sc), vehicle: steroid suspending solution, higher T/C = larger tumour): 3 of 6

C[C@H]1CC[C@@]2(NC1)O[C@H]1C[C@H]3[C@@H]4CC[C@H]5C[C@@H](O)CC[C@]5(C)[C@H]4CC[C@]3(C)[C@H]1[C@@H]2C
T/C (T/C endpoint: mean tumor weight, dose: 200.0 mg/kg/injection, schedule: Q01DX011 (sc), vehicle: steroid suspending solution, evaluated on day 12, higher T/C = larger tumour): 133 % of control

O=CN(O)CC(=O)O
T/C (T/C endpoint: median survival time, dose: 1500.0 mg/kg/injection, schedule: Q01DX001 (ip), vehicle: saline, higher T/C = longer survival): 131 % of control

CC(=N\O)/C(C)=N/O.CC(=N\O)/C(C)=N/O.[Pd]
survivor count (T/C endpoint: median survival time, dose: 3.13 mg/kg/injection, schedule: Q01DX009 (ip), vehicle: Klucel (hydroxypropylcellulose) (HPC), higher T/C = longer survival): 10 of 10 | survivor count (T/C endpoint: median survival time, dose: 6.25 mg/kg/injection, schedule: Q01DX009 (ip), vehicle: Klucel (hydroxypropylcellulose) (HPC), higher T/C = longer survival): 10 of 10

COC(=O)C1CCC(NC(=O)N(CCCl)N=O)CC1 (configuration not stated)
T/C (T/C endpoint: median survival time, dose: 15.0 mg/kg/injection, schedule: Q01DX001 (ip), vehicle: saline with Tween-80, higher T/C = longer survival): 127 % of control | survivor count (T/C endpoint: median survival time, dose: 34.0 mg/kg/injection, schedule: Q01DX001 (ip), vehicle: saline with Tween-80, higher T/C = longer survival): 10 of 10 on day 11 | survivor count (T/C endpoint: median survival time, dose: 48.0 mg/kg/injection, schedule: Q01DX001 (ip), vehicle: saline with Tween-80, higher T/C = longer survival): 10 of 10 on day 11

COc1cc(C[C@H]2c3cc(OC)c(OC)cc3CCN2C)c(Oc2cc3c(cc2OC)-c2c(OC)c(OC)cc4c2[C@H](C3)N(C)CC4)cc1OC
survivor count (T/C endpoint: mean tumor weight, dose: 200.0 mg/kg/injection, schedule: Q01DX011 (ip), vehicle: carboxymethylcellulose (CMC), higher T/C = larger tumour): 0 of 4

COC(=O)[C@H]1[C@H]2C[C@@H]3c4[nH]c5cc(OC)ccc5c4CCN3C[C@H]2C[C@@H](OC(=O)c2cc(OC)c(OC)c(OC)c2)[C@@H]1OC
survivor count (T/C endpoint: median survival time, dose: 0.25 mg/kg/injection, schedule: Q01DX009 (ip), vehicle: Klucel (hydroxypropylcellulose) (HPC), higher T/C = longer survival): 10 of 10 | T/C (T/C endpoint: median survival time, dose: 1.0 mg/kg/injection, schedule: Q01DX009 (ip), vehicle: Klucel (hydroxypropylcellulose) (HPC), higher T/C = longer survival): 146 % of control | survivor count (T/C endpoint: median survival time, dose: 4.0 mg/kg/injection, schedule: Q01DX009 (ip), vehicle: Klucel (hydroxypropylcellulose) (HPC), higher T/C = longer survival): 10 of 10

CC/C(=C(\CC)c1ccc(OC)cc1)c1ccc(O)cc1
survivor count (T/C endpoint: mean tumor weight, dose: 480.0 mg/kg/injection, schedule: Q01DX011 (sc), vehicle: steroid suspending solution, higher T/C = larger tumour): 1 of 6
